Assay results: publication doi:10.1101/2020.11.13.381483
Results are given in words; binding and its absence hold for the method and conditions named. Binding seen in cells or lysates may run through a third protein. Some binding calls cover weakened binding; strength is not graded here. Tags and fused reporters may be left off the sequences shown.

T1: Pds5, endogenous, C-terminally tagged with 13Myc (S. cerevisiae) (UniProt Q04264)
T1 sequence: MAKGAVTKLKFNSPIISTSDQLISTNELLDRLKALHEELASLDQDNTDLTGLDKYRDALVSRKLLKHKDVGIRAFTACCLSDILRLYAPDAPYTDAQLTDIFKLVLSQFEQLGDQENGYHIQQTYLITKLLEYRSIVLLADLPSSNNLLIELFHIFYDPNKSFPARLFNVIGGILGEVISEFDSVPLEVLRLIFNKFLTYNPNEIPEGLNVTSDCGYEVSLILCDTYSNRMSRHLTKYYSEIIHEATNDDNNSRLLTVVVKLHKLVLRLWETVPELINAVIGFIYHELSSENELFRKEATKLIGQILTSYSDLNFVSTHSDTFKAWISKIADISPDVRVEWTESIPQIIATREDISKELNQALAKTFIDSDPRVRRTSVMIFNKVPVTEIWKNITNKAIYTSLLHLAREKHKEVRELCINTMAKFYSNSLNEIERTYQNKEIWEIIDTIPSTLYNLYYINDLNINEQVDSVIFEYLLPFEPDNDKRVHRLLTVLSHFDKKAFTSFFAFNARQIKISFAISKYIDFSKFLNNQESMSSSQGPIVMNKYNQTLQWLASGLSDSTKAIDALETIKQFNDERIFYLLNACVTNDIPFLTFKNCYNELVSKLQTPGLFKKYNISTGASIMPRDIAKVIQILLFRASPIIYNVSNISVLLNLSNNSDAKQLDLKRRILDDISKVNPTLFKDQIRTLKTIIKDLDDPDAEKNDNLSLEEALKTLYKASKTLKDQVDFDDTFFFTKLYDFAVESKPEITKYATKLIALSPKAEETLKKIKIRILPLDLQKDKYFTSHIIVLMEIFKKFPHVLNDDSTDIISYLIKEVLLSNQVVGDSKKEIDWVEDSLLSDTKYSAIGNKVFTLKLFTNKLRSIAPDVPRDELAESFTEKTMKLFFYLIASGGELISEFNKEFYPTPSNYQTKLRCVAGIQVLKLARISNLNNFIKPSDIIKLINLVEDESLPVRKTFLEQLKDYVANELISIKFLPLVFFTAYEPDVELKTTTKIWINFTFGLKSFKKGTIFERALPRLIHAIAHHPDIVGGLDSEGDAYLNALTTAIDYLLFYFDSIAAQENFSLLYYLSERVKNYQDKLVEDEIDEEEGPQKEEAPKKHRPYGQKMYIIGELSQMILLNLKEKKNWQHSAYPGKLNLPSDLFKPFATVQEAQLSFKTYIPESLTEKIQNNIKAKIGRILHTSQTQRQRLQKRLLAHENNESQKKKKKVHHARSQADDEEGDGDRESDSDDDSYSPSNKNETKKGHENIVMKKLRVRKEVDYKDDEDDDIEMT

T2: Ulp2, endogenous, C-terminally tagged with 9PK (S. cerevisiae) (UniProt P40537)
T2 sequence: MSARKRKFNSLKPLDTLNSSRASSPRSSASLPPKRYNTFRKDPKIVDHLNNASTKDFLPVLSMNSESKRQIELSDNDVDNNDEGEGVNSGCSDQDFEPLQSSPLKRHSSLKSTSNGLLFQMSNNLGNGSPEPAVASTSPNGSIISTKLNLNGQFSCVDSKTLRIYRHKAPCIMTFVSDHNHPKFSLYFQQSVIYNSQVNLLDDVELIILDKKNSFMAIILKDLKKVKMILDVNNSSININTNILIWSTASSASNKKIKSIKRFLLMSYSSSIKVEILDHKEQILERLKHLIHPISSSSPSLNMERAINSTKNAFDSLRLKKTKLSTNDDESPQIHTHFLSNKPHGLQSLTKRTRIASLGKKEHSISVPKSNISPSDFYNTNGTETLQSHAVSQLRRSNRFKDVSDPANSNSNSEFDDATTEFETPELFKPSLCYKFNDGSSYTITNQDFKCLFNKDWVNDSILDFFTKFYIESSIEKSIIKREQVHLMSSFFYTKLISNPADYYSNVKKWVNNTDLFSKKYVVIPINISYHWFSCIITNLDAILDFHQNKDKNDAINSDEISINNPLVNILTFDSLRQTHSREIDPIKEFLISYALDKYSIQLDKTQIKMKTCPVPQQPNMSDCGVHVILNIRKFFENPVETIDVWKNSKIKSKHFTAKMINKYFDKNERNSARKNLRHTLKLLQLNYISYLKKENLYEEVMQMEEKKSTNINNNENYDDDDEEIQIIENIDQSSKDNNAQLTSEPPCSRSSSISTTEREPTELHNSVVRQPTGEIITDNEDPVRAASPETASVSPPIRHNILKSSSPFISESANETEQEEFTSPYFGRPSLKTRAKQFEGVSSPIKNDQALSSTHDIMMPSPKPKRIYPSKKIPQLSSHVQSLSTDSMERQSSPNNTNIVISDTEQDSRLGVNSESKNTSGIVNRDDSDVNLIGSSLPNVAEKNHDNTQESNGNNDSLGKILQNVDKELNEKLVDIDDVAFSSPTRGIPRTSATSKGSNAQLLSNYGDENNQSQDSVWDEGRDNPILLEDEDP


Legend:
[1] = biological target: T1, Pds5, endogenous, C-terminally tagged with 13Myc (S. cerevisiae); assay: co-IP
[2] = biological target: T2, Ulp2, endogenous, C-terminally tagged with 9PK (S. cerevisiae); assay: co-IP

binding [1]	binding [2]	Binder
binds		Ulp2, endogenous, C-terminally tagged with 9PK (enzyme, UniProt P40537 1-1034) MSARKRKFNSLKPLDTLNSSRASSPRSSASLPPKRYNTFRKDPKIVDHLNNASTKDFLPVLSMNSESKRQIELSDNDVDNNDEGEGVNSGCSDQDFEPLQSSPLKRHSSLKSTSNGLLFQMSNNLGNGSPEPAVASTSPNGSIISTKLNLNGQFSCVDSKTLRIYRHKAPCIMTFVSDHNHPKFSLYFQQSVIYNSQVNLLDDVELIILDKKNSFMAIILKDLKKVKMILDVNNSSININTNILIWSTASSASNKKIKSIKRFLLMSYSSSIKVEILDHKEQILERLKHLIHPISSSSPSLNMERAINSTKNAFDSLRLKKTKLSTNDDESPQIHTHFLSNKPHGLQSLTKRTRIASLGKKEHSISVPKSNISPSDFYNTNGTETLQSHAVSQLRRSNRFKDVSDPANSNSNSEFDDATTEFETPELFKPSLCYKFNDGSSYTITNQDFKCLFNKDWVNDSILDFFTKFYIESSIEKSIIKREQVHLMSSFFYTKLISNPADYYSNVKKWVNNTDLFSKKYVVIPINISYHWFSCIITNLDAILDFHQNKDKNDAINSDEISINNPLVNILTFDSLRQTHSREIDPIKEFLISYALDKYSIQLDKTQIKMKTCPVPQQPNMSDCGVHVILNIRKFFENPVETIDVWKNSKIKSKHFTAKMINKYFDKNERNSARKNLRHTLKLLQLNYISYLKKENLYEEVMQMEEKKSTNINNNENYDDDDEEIQIIENIDQSSKDNNAQLTSEPPCSRSSSISTTEREPTELHNSVVRQPTGEIITDNEDPVRAASPETASVSPPIRHNILKSSSPFISESANETEQEEFTSPYFGRPSLKTRAKQFEGVSSPIKNDQALSSTHDIMMPSPKPKRIYPSKKIPQLSSHVQSLSTDSMERQSSPNNTNIVISDTEQDSRLGVNSESKNTSGIVNRDDSDVNLIGSSLPNVAEKNHDNTQESNGNNDSLGKILQNVDKELNEKLVDIDDVAFSSPTRGIPRTSATSKGSNAQLLSNYGDENNQSQDSVWDEGRDNPILLEDEDP
	binds	Pds5, endogenous, C-terminally tagged with 13Myc (protein, UniProt Q04264 1-1277) MAKGAVTKLKFNSPIISTSDQLISTNELLDRLKALHEELASLDQDNTDLTGLDKYRDALVSRKLLKHKDVGIRAFTACCLSDILRLYAPDAPYTDAQLTDIFKLVLSQFEQLGDQENGYHIQQTYLITKLLEYRSIVLLADLPSSNNLLIELFHIFYDPNKSFPARLFNVIGGILGEVISEFDSVPLEVLRLIFNKFLTYNPNEIPEGLNVTSDCGYEVSLILCDTYSNRMSRHLTKYYSEIIHEATNDDNNSRLLTVVVKLHKLVLRLWETVPELINAVIGFIYHELSSENELFRKEATKLIGQILTSYSDLNFVSTHSDTFKAWISKIADISPDVRVEWTESIPQIIATREDISKELNQALAKTFIDSDPRVRRTSVMIFNKVPVTEIWKNITNKAIYTSLLHLAREKHKEVRELCINTMAKFYSNSLNEIERTYQNKEIWEIIDTIPSTLYNLYYINDLNINEQVDSVIFEYLLPFEPDNDKRVHRLLTVLSHFDKKAFTSFFAFNARQIKISFAISKYIDFSKFLNNQESMSSSQGPIVMNKYNQTLQWLASGLSDSTKAIDALETIKQFNDERIFYLLNACVTNDIPFLTFKNCYNELVSKLQTPGLFKKYNISTGASIMPRDIAKVIQILLFRASPIIYNVSNISVLLNLSNNSDAKQLDLKRRILDDISKVNPTLFKDQIRTLKTIIKDLDDPDAEKNDNLSLEEALKTLYKASKTLKDQVDFDDTFFFTKLYDFAVESKPEITKYATKLIALSPKAEETLKKIKIRILPLDLQKDKYFTSHIIVLMEIFKKFPHVLNDDSTDIISYLIKEVLLSNQVVGDSKKEIDWVEDSLLSDTKYSAIGNKVFTLKLFTNKLRSIAPDVPRDELAESFTEKTMKLFFYLIASGGELISEFNKEFYPTPSNYQTKLRCVAGIQVLKLARISNLNNFIKPSDIIKLINLVEDESLPVRKTFLEQLKDYVANELISIKFLPLVFFTAYEPDVELKTTTKIWINFTFGLKSFKKGTIFERALPRLIHAIAHHPDIVGGLDSEGDAYLNALTTAIDYLLFYFDSIAAQENFSLLYYLSERVKNYQDKLVEDEIDEEEGPQKEEAPKKHRPYGQKMYIIGELSQMILLNLKEKKNWQHSAYPGKLNLPSDLFKPFATVQEAQLSFKTYIPESLTEKIQNNIKAKIGRILHTSQTQRQRLQKRLLAHENNESQKKKKKVHHARSQADDEEGDGDRESDSDDDSYSPSNKNETKKGHENIVMKKLRVRKEVDYKDDEDDDIEMT
